Assay results from PMC6177004.
Results are given in words; binding and its absence hold for the method and conditions named. Binding seen in cells or lysates may run through a third protein. These calls come from enrichment with a bait or labelling near it, and not all partners need be listed. Where a sequence is shown, tags or fusion partners need not be part of it.

The chains behind the UniProt entries cited, without tags or fusion partners. Where a name states a change or a piece, a line headed by the entry shows the natural chain unless it says otherwise. Residues count along the entry.
UniProt Q54I79: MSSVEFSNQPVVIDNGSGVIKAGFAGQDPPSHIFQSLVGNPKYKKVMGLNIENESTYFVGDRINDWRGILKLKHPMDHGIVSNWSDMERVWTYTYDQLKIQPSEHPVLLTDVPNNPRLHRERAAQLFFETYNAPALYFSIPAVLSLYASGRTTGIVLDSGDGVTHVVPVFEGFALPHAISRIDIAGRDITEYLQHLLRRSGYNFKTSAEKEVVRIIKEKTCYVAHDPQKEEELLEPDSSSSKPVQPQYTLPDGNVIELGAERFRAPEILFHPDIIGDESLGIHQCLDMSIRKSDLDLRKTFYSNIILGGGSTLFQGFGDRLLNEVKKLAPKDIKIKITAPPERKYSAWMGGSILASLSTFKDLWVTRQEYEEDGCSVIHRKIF
UniProt Q552E2: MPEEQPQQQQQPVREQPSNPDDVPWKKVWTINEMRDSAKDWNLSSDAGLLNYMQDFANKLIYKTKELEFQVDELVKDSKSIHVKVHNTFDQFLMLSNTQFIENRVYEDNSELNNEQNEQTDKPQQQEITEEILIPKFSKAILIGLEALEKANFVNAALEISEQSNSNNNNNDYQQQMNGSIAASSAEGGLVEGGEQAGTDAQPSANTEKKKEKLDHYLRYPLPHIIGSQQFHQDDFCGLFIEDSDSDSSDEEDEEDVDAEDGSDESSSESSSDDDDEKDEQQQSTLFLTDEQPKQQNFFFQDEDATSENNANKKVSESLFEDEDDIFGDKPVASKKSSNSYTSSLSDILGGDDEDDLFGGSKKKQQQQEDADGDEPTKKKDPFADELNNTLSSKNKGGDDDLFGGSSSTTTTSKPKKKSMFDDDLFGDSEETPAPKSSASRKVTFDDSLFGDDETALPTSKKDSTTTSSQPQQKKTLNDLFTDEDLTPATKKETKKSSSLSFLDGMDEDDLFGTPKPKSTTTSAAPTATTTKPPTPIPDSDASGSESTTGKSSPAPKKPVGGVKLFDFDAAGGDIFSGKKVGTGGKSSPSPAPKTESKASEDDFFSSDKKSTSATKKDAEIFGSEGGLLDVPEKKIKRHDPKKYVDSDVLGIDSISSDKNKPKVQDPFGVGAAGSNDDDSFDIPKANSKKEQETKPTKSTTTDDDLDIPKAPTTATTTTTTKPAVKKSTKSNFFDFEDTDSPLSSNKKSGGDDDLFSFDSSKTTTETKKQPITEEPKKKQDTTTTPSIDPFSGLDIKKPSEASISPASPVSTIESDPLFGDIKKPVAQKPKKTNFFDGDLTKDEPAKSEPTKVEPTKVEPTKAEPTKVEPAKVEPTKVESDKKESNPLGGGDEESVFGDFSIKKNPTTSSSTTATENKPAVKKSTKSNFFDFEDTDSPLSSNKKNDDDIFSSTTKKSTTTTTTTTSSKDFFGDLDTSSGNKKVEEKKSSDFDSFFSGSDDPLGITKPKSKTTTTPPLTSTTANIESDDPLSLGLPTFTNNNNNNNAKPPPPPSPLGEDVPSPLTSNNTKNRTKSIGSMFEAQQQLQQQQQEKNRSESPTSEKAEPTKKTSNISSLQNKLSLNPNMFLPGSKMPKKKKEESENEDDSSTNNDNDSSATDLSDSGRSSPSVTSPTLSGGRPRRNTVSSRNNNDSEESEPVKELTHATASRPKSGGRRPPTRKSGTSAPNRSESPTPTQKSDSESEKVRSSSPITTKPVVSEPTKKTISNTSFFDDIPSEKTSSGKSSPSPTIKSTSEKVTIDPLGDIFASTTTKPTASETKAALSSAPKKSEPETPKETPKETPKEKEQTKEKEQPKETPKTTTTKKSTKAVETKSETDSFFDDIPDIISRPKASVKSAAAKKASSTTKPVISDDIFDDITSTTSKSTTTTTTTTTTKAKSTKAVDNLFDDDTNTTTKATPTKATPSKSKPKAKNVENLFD
UniProt Q8T869, residues 21-658: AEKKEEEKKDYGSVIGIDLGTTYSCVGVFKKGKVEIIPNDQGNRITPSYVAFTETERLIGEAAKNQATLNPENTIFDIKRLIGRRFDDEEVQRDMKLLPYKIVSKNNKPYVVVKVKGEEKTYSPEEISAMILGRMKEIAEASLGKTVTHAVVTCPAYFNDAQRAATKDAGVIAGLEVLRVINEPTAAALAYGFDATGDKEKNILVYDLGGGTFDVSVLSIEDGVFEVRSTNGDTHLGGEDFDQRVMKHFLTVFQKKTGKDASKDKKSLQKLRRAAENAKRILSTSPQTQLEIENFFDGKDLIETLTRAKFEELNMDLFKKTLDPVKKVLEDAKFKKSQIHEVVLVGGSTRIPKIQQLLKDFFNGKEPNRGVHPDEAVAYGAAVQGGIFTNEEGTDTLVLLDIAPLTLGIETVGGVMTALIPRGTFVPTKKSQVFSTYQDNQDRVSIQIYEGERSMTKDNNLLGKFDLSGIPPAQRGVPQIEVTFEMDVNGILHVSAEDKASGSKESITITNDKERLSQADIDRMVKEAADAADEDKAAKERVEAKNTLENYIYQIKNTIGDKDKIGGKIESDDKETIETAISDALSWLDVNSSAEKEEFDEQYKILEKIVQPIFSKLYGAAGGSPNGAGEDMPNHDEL
UniProt Q55FU3: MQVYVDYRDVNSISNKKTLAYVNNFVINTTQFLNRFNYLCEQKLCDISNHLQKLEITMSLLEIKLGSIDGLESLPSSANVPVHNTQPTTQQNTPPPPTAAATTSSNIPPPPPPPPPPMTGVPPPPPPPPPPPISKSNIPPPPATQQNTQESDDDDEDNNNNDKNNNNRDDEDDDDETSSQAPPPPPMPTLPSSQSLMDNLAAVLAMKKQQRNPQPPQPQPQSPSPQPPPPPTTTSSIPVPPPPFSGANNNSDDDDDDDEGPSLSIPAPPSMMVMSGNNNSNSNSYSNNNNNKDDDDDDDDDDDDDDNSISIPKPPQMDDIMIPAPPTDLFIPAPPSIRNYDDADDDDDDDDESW

biological target: T1, Str^WT-GFP (full-length Dictyostelium discoideum strumpellin fused to GFP) (Dictyostelium discoideum) (UniProt Q54IR8); assay: affinity purification with mass spectrometry; GFP-Trap beads pull GFP-tagged strumpellin from the cleared lysate of 2x10^8 D. discoideum cells (20 mM Tris-HCl pH 7.5, 20 mM MgCl2, 5% glycerol, 1 mM DTT, 100 mM NaCl); washes with 50 mM Tris-HCl pH 7.5, 150 mM NaCl, 0.2% NP40; on-bead digestion; four independent experiments; AX2|GFP as negative control
T1 sequence: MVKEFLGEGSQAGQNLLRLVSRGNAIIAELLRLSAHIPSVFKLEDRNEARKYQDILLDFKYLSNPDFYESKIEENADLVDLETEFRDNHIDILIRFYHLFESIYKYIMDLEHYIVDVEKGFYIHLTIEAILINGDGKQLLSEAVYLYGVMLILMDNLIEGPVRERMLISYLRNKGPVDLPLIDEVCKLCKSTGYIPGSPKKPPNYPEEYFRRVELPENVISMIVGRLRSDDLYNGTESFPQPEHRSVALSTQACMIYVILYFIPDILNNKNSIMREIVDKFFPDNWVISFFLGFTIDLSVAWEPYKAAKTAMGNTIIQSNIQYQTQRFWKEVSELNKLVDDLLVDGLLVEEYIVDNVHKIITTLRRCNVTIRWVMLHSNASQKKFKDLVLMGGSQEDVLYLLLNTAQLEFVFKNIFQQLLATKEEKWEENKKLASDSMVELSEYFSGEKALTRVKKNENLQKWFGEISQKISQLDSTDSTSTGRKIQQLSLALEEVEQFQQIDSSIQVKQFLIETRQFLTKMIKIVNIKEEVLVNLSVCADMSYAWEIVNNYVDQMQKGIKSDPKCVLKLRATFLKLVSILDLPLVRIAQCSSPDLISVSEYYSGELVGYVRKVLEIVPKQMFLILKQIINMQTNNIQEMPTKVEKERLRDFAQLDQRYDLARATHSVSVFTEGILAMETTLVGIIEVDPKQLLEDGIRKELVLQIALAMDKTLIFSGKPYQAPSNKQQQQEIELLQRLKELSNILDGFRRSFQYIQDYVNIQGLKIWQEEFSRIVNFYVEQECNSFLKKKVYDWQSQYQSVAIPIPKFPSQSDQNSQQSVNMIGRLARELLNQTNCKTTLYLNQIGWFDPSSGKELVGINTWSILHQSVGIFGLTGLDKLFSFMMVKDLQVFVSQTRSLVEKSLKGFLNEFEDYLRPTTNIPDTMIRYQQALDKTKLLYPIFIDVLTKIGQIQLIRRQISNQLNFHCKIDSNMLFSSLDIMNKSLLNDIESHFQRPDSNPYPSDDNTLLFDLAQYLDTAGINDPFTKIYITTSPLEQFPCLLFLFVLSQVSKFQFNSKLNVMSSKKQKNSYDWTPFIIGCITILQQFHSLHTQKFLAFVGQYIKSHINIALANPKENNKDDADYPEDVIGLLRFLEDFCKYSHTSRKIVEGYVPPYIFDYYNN

binding, binds:
Arp1, a component of the dynactin complex (from UniProt Q54I79 1-383)
FAM21 (from UniProt Q552E2)
Grp78 or Bip2 (78 kDa glucose-regulated protein homologue) (from UniProt Q8T869 21-658)
coiled coil domain containing 53 (CCDC53) (from UniProt Q55FU3)
putative myosin light chain kinase (MLCK) (enzyme)
